Data published in PubChem BioAssay AID687031 (Broad Institute, 2013).
Screen size: about 1,400 compounds; about 50 (4%) were called active.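 Rule for the calls: active = fitted curve reaches 30% CPE protection at or below the top valid dose, with every test run called active; inconclusive = test runs disagree, some active and some not; inactive = every test run inactive, including effects in the wrong direction.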 The list shows a part of the results. Measured potencies and affinities stand elsewhere.

assay: antiviral rescue of DENV2-infected BHK-21 cells – cell-based, ATP luminescence, cherry-pick, dose response (AID 687031); settings: BHK-21 DENV2 CPE protection, 5 d; at 19.5 µM (top of the series) unless noted;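 note: 0% = infected DMSO wells and 100% = uninfected cell wells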

Row | SMILES | CPE protection (higher = active)
1 | CN(C)CC#Cc1ccc([C@H]2[C@@H](CO)N(C(=O)C3CCC3)[C@H]2C#N)cc1 | inactive: -9.33%
2 | Cc1ccc(S(=O)(=O)N(C)C[C@@H]2OCCCC[C@H](C)Oc3ccc(NS(=O)(=O)c4c(C)noc4C)cc3C(=O)N([C@@H](C)CO)C[C@@H]2C)cc1 | inactive: -20.7%
3 | CCC(=O)Nc1ccc(NC(=O)c2oc3ccccc3c2C)cc1 | inactive: -18.3%
4 | Cc1cccnc1C(NC(=O)C1CCN(CCCc2ccccc2)CC1)c1ccc(Cl)cc1 (configuration not stated) | inactive: 10.6%
5 | Cc1ccc(C(=O)OCC(=O)N2C(C)CCCC2C)cc1S(=O)(=O)N1CCOCC1 (configuration not stated) | inactive: 2.87%
6 | CC(C)CN(C(=O)c1cc(Cl)nc2ccccc12)c1c(N)n(Cc2ccccc2)c(=O)[nH]c1=O | inactive: -16.7%
7 | Cc1noc(C)c1S(=O)(=O)Nc1cccc2c1O[C@H](CN(C)C(=O)NC(C)C)[C@H](C)CN([C@@H](C)CO)C2=O | inactive: 11.1%
8 | CC(Oc1ccc(Cl)cc1Cl)C(=O)NCCCN1CCOCC1 (configuration not stated) | inactive: -24.5%
9 | Cc1ccccc1OCCCCN1CCCCC1 | inactive: 2.62%
10 | COc1cccc(-c2ccc3c(c2)[C@H]2[C@H](CCN2S(=O)(=O)c2cn(C)cn2)[C@@H](CO)N3)c1 | inactive: -4.08%
11 | C=CCc1ccc(OCCCNCc2ccccc2)c(OC)c1 | inactive: -3.76%
12 | CCCCN(C)CCCNC(=O)c1cc(-c2cccs2)nc2ccccc12 | inactive: 27.6%
13 | O=C(Nc1ccc(Cl)cc1)N(CCCN1CCOCC1)Cc1cccs1 | inactive: -12.8%
14 | CCN(CC(=O)Nc1cc(Cl)ccc1C)C(=O)c1ccc2c(c1)NC(=O)C(C)S2 (configuration not stated) | inactive: -3.39%
15 | Cc1ccccc1CN1CCN(CC(=O)NC(C)c2ccccc2)CC1 (configuration not stated) | inactive: -3.52%
16 | CSc1ccc(S(=O)(=O)NC2CC3CCC2C3)cc1 (configuration not stated) | inactive: -7.3%
17 | CCN(CC(=O)Nc1c(F)cccc1F)C(=O)C1CCN(S(=O)(=O)c2ccc(F)cc2)CC1 | inactive: -5.16%
18 | CN(CCc1ccccn1)C(=O)CCC1CCCN(C(=O)c2cccc(N(C)C)c2)C1 (configuration not stated) | inactive: -10.9%
19 | O=C(OCC(=O)N1CCc2ccccc21)[C@@H]1CCCN1S(=O)(=O)c1ccccc1F | inactive: 29%
20 | C/C(=N/NC(=O)CCC(=O)Nc1cccc(Cl)c1)c1ccc(C)cc1 | inactive: 4.62%
21 | C[C@@H](NC(=O)c1ncn(C)c1C(=O)N[C@H](C)c1ccccc1)c1ccccc1 | inactive: 2.74%
22 | O=C(Nc1ccncc1)Nc1ccc(Cl)cc1Cl | inactive: 1.37%
23 | O=S(=O)(c1cccc(C(F)(F)F)c1)N1CCN(CC(O)COCc2ccccc2)CC1 (configuration not stated) | inactive: -4.84%
24 | Brc1ccc(OCc2nnc(SCC3CCCCC3)o2)cc1 | inactive: 1.56%
25 | COc1ccccc1CN1CCCC(N2CCN(c3ccccc3OC)CC2)C1 (configuration not stated) | inactive: -5.36%
26 | COc1ccccc1CN1[C@H](CO)[C@@H](c2ccccc2)C12CN(C(=O)c1ccccn1)C2 | inactive: 17.5%

Part of the list above, reformatted.
Cc1noc(C)c1S(=O)(=O)Nc1cccc2c1O[C@H](CN(C)C(=O)NC(C)C)[C@H](C)CN([C@@H](C)CO)C2=O
  CPE protection (higher = active): inactive: 11.1%
CC(Oc1ccc(Cl)cc1Cl)C(=O)NCCCN1CCOCC1 (configuration not stated)
  CPE protection (higher = active): inactive: -24.5%

Additional entries

Row | SMILES | CPE protection (higher = active)
27 | NC(=O)c1ccccc1NC(=O)COC(=O)C1(c2ccccc2)CC1 | inactive: -0.556%
28 | CCCCCNCc1ccc(OCc2ccc(Cl)nc2)c(OC)c1 | inactive: -18.7%
29 | Cc1ccc(S(=O)(=O)N(C)C[C@@H]2OCCCC[C@H](C)Oc3ccc(NS(=O)(=O)c4c(C)noc4C)cc3C(=O)N([C@H](C)CO)C[C@H]2C)cc1 | inactive: -11.9%
30 | COc1ccc(CC(=O)NCC2CCCN(Cc3ccc(OC(F)(F)F)cc3)C2)cc1 (configuration not stated) | inactive: 12.2%
31 | Cc1cccc(C)c1NC(=O)CN1CCN(C(=O)CN2C(=O)NC3(CCCCC3C)C2=O)CC1 (configuration not stated) | inactive: 13.3%
32 | Cc1ccnc(NC(=O)c2ccc(Cl)c(S(=O)(=O)N3CCCC3)c2)c1 | inactive: -9.39%
33 | O=S(=O)(NCc1c(Cl)cccc1Oc1ccccc1)c1ccccc1 | inactive: -4.85%
34 | COc1cc(C(=O)OCCn2c(=O)c3c(ncn3CCN(C)C)n(C)c2=O)cc(OC)c1OC | inactive: -1.4%
35 | COc1ccc(-c2cc(C#N)nc(NN)n2)cc1 | inactive: -4.19%
36 | Clc1ccc(-c2csc(-c3cccnc3)n2)s1 | inactive: -19.4%
37 | C[C@@H]1CN([C@H](C)CO)C(=O)c2cc(NC(=O)Nc3ccc(C(F)(F)F)cc3)ccc2O[C@H]1CN(C)C(=O)NC1CCCCC1 | inactive: 17.9%
38 | CCC(C)c1ccc(NC(=O)NCCN2CCCCC2)cc1 (configuration not stated) | inactive: -15.7%
39 | O=C(C1CC1)N1CC[C@@H]2[C@H]1c1cc(-c3ccc(F)cc3)ccc1N[C@@H]2CO | inactive: 19.9%
40 | COc1ccc(Cc2nnc(NC(=O)c3ccccc3Cl)s2)cc1OC | inactive: -3.71% [at 10 µM]
41 | C=CCOc1ccccc1CN1CCC(Cc2ccccc2)CC1 | inactive: -20%
42 | COC(=O)C1[C@H]2SC(C)(C)C(C(=O)OC)N2C(=O)N1Cc1nc2ccccc2s1 (some centres not stated) | inactive: 1.83%
43 | CN(C)CCCNc1oc(-c2ccc(Cl)cc2)nc1S(=O)(=O)c1ccccc1 | inactive: 14%
44 | O=S(=O)(Nc1cccc(-n2cnnn2)c1)c1cccc(Cl)c1 | inactive: 2.88%
45 | CC1(c2nnnn2Cc2ccccc2)CCC(=O)N1CCCn1ccnc1 (configuration not stated) | inactive: 15.2%
46 | CCOC(=O)c1cn(CC)c2cc3c(cc2c1=O)OCO3 | inactive: 7.12%
47 | O=C(O)C[C@H]1C=C[C@@H](NC(=O)CCN2CCCCC2)[C@@H](CO)O1 | inactive: -6.45%
48 | CC(C)C[C@H](NC(=O)c1nc[nH]c1C(=O)N1CCC(C)CC1)C(=O)OC(C)(C)C | inactive: -8.21%
49 | CCCc1cc(CNC(=O)C2CCC(=O)N(CCc3cccc(F)c3)C2)on1 (configuration not stated) | inactive: -19.7%
50 | CC(C)C[C@@H](COc1ccccc1)N1CCN(Cc2ccccc2)CCC1=O | inactive: -10.9%
51 | Cc1noc(C)c1S(=O)(=O)Nc1ccc2c(c1)C(=O)N([C@H](C)CO)C[C@H](C)[C@H](CN(C)C(=O)Nc1ccccc1)OCCCC[C@@H](C)O2 | inactive: 7.27%
52 | CCC(=O)N1[C@@H]2c3ccc(C4=CCCCC4)c(=O)n3C[C@H]1[C@H](CO)[C@H]2C(=O)N[C@H](C)c1ccccc1 | inactive: 14.6%
